# The other results are listed elsewhere or left out. For some assays here: Construct or isoform of the protein are uncertain.
# Experiments:
# Experiment in all cases: protein microarray (ProtoArray v5.0), streptavidin-Alexa Fluor 647
# Settings in all cases: 3'-biotin; 20 mM Tris (pH 7.5), 5 mM MgCl2, 100 mM KCl, 0.1% Tween-20, A/T-rich and random oligonucleotide blockers; temperature not stated; high values mean tight binding
# [1] = test system: ACTN4 (human)
# [2] = test system: ACTR6 (human)
# [3] = test system: ACVRL1 (human)
# [4] = test system: ACY1 (human)
# [5] = test system: ACY3 (human)
# [6] = test system: ADAM33 (human)
# [7] = test system: ADD1 (human)
# [8] = test system: ADH5 (human)
# [9] = test system: ADI1 (human)
# [10] = test system: ADPRHL1 (human)
# [11] = molecular target: ADRB2 (UniProt P07550)
# [12] = test system: ADRM1 (human)
# [13] = test system: AFAP1L1 (human)
# [14] = test system: AFG3L1 (human)
# [15] = test system: AGR2 (human)
# [16] = test system: AGT (human)
# [17] = test system: AGXT2L2 (human)
# [18] = test system: AHCY (human)
# [19] = test system: AHNAK (human)
# [20] = test system: AHNAK2 (human)
sequence,measurement,setting,value
GGGAGGCTGAGGCAGG [G4-1 biotinylated (PQS2)],binding signal,[1],-0.316 z-score
same,binding signal,[2],-0.285 z-score
same,binding signal,[3],-0.325 z-score
same,binding signal,[4],-0.353 z-score
same,binding signal,[5],-0.349 z-score
same,binding signal,[6],-0.267 z-score
same,binding signal,[7],-0.343 z-score
same,binding signal,[8],-0.33 z-score
same,binding signal,[9],-0.368 z-score
same,binding signal,[10],-0.332 z-score
same,binding signal,[11],-0.333 z-score
same,binding signal,[12],-0.353 z-score
same,binding signal,[13],-0.336 z-score
same,binding signal,[14],-0.348 z-score
same,binding signal,[15],-0.264 z-score
same,binding signal,[16],-0.298 z-score
same,binding signal,[17],-0.328 z-score
same,binding signal,[18],-0.339 z-score
same,binding signal,[19],-0.301 z-score
same,binding signal,[20],-0.334 z-score

# Two entries from above, tab-delimited:
sequence	measurement	setting	value
GGGAGGCTGAGGCAGG [G4-1 biotinylated (PQS2)]	binding signal	[5]	-0.349 z-score
same	binding signal	[6]	-0.267 z-score
